Data published in patent US20160090556A1, “PRODUCTS COMPRISING MALODOR REDUCTION MATERIALS” (The Procter & Gamble Company, priority 2014, published 2016).

Assay: Melamine formaldehyde PMC leakage
[1] = code J of the Comment Code column, Table 1

Compound	Comment Code: Melamine formaldehyde PMC leakage (code letter J)	Melamine formaldehyde PMC leakage (Comment Code J)	Comment Code: Melamine formaldehyde PMC leakage [1]
CCOC(=O)OC1C(C)CCC(C)C1C (stereo not drawn) [Material 1005]	J (Melamine formaldehyde PMC leakage less than or equal to 5%)	–	–
CC1CC(C)(c2ccccc2)CO1 (stereo not drawn) [Material 1006]	–	J (Melamine formaldehyde PMC leakage less than or equal to 5%)	–
CC1=CC[C@@H]2C3CC([C@@H]2C1)[C@@]1(C3)OC1C (stereo partly drawn) [Material 1007]	J (Melamine formaldehyde PMC leakage less than or equal to 5%)	J (Melamine formaldehyde PMC leakage less than or equal to 5%)	–
C/C=C1/CC2CC1C1CCCOC21 (stereo not drawn) [Material 1008]	–	J (Melamine formaldehyde PMC leakage less than or equal to 5%)	–
CCC(=O)OCC(=O)OC(C)C1CCCC(C)(C)C1 (stereo not drawn) [Material 1009]	–	J (Melamine formaldehyde PMC leakage less than or equal to 5%)	–
CC(CO)CCCc1ccccc1 (stereo not drawn) [Material 1012]	–	J (Melamine formaldehyde PMC leakage less than or equal to 5%)	–
CC1=CCOC(c2ccccc2)C1 (stereo not drawn) [Material 1016]	–	J (Melamine formaldehyde PMC leakage less than or equal to 5%)	–
CC1=CCC(CCC(C)C(C)O)C1(C)C (stereo not drawn) [Material 1023]	–	J (Melamine formaldehyde PMC leakage less than or equal to 5%)	–
CC/C(=C/CC1CC=C(C)C1(C)C)CO (stereo not drawn) [Material 1024]	J (Melamine formaldehyde PMC leakage less than or equal to 5%)	J (Melamine formaldehyde PMC leakage less than or equal to 5%)	–
COC1CC2CC1C1CC(C=O)CC21 (stereo not drawn) [Material 1026]	–	J (Melamine formaldehyde PMC leakage less than or equal to 5%)	–
COC1CC2CC1C1CC(C=O)CC21 (stereo not drawn) [Material 1027]	J (Melamine formaldehyde PMC leakage less than or equal to 5%)	J (Melamine formaldehyde PMC leakage less than or equal to 5%)	–
C=C[C@](C)(O)CC[C@@H]1[C@@]2(C)CCCC(C)(C)[C@@H]2CC[C@@]1(C)O [Material 1028]	J (Melamine formaldehyde PMC leakage less than or equal to 5%)	J (Melamine formaldehyde PMC leakage less than or equal to 5%)	–
CC1=CC[C@@H]2[C@@]3(C)CCCC(C)(C)[C@@H]3CC[C@@]2(C)O1 [Material 1029]	J (Melamine formaldehyde PMC leakage less than or equal to 5%)	J (Melamine formaldehyde PMC leakage less than or equal to 5%)	–
CCCOC(=O)[C@H](C)OC(C)(C)CC [Material 1030]	J (Melamine formaldehyde PMC leakage less than or equal to 5%)	–	–
CC1=CCCC2(C)CCC(=C(C)C)CC12 (stereo not drawn) [Material 1031]	–	J (Melamine formaldehyde PMC leakage less than or equal to 5%)	–
CC(OC(C)(C)COC(=O)C1CC1)C1CCCC(C)(C)C1 (stereo not drawn) [Material 1032]	–	J (Melamine formaldehyde PMC leakage less than or equal to 5%)	–
CC(C)Cc1ccc(CC(C)C=O)cc1 (stereo not drawn) [Material 1033]	–	J (Melamine formaldehyde PMC leakage less than or equal to 5%)	–
C=C1CC[C@@H]2[C@H]([C@H]3[C@H]1CC[C@]3(C)O)C2(C)C [Material 1035]	J (Melamine formaldehyde PMC leakage less than or equal to 5%)	J (Melamine formaldehyde PMC leakage less than or equal to 5%)	–
CC1CCC2C(C2(C)C)C12COC(C)(C)OC2 (stereo not drawn) [Material 1036]	–	J (Melamine formaldehyde PMC leakage less than or equal to 5%)	–
C=CCCC(=O)C1=CCCC2(CCCC2)C1 [Material 1038]	J (Melamine formaldehyde PMC leakage less than or equal to 5%)	J (Melamine formaldehyde PMC leakage less than or equal to 5%)	–
CCCCCCC/C=C\CCC=O [Material 1045]	–	J (Melamine formaldehyde PMC leakage less than or equal to 5%)	–
CC1=CC2C(C(C)C)CCC(C)(O)C2CC1 (stereo not drawn) [Material 1046]	–	J (Melamine formaldehyde PMC leakage less than or equal to 5%)	–
CC1=CC2C(C(C)C)CCC(C)(O)C2CC1 (stereo not drawn) [Material 1047]	–	J (Melamine formaldehyde PMC leakage less than or equal to 5%)	–
CCC(C)(CCCC(C)C)OC(C)=O (stereo not drawn) [Material 1055]	J (Melamine formaldehyde PMC leakage less than or equal to 5%)	–	–
CC1=CCC2(C)CCCC(C)(C)C23CC13 (stereo not drawn) [Material 1060]	J (Melamine formaldehyde PMC leakage less than or equal to 5%)	J (Melamine formaldehyde PMC leakage less than or equal to 5%)	–
CCCC(O)CCC1C(C)CCCC1(C)C (stereo not drawn) [Material 1063]	–	J (Melamine formaldehyde PMC leakage less than or equal to 5%)	–
CC(C)=CCC/C(C)=C/CC/C(C)=C/CO [Material 1065]	–	J (Melamine formaldehyde PMC leakage less than or equal to 5%)	–

Compound	Comment Code: Melamine formaldehyde PMC leakage (code letter J)	Melamine formaldehyde PMC leakage (Comment Code J)	Comment Code: Melamine formaldehyde PMC leakage [1]
CCCCCC1C(=O)CCC1CC(=O)OC (stereo not drawn) [Material 1083]	–	J (Melamine formaldehyde PMC leakage less than or equal to 5%)	–
CC(C)(C)c1ccc2c(c1)OCC(=O)CO2 [Material 1085]	–	J (Melamine formaldehyde PMC leakage less than or equal to 5%)	–
CC(=O)OC(c1ccccc1)C(Cl)(Cl)Cl (stereo not drawn) [Material 1088]	J (Melamine formaldehyde PMC leakage less than or equal to 5%)	–	–
CCCCCCCCCCCCCO [Material 1090]	–	J (Melamine formaldehyde PMC leakage less than or equal to 5%)	–
CCOC(=O)CC(O)(CC(=O)OCC)C(=O)OCC [Material 1091]	–	J (Melamine formaldehyde PMC leakage less than or equal to 5%)	–
COC(=O)c1ccccc1NC(O)CC(C)c1ccccc1 (stereo not drawn) [Material 1093]	–	J (Melamine formaldehyde PMC leakage less than or equal to 5%)	–
CC(=O)C1CC/C(C)=C\CC/C(C)=C\C/C=C/1C (stereo not drawn) [Material 1095]	–	J (Melamine formaldehyde PMC leakage less than or equal to 5%)	–
CC1CC2CCC3C(C2O1)C(C)(C)C(C)C3(C)C (stereo not drawn) [Material 1097]	J (Melamine formaldehyde PMC leakage less than or equal to 5%)	J (Melamine formaldehyde PMC leakage less than or equal to 5%)	–
CC1CC=CCCCCCCCC(=O)OCC1 (stereo not drawn) [Material 1099]	–	J (Melamine formaldehyde PMC leakage less than or equal to 5%)	–
CCCCCCCCCCC=O [Material 1102]	–	J (Melamine formaldehyde PMC leakage less than or equal to 5%)	–
C=C(C)[C@@H]1CCC2=CCC[C@@H](C)[C@]2(C)C1 [Material 1105]	–	J (Melamine formaldehyde PMC leakage less than or equal to 5%)	–
C[C@@H]1CCC=C2CC[C@@H](C(C)(C)O)C[C@]21C [Material 1107]	J (Melamine formaldehyde PMC leakage less than or equal to 5%)	J (Melamine formaldehyde PMC leakage less than or equal to 5%)	–
COc1cc(C=O)ccc1OC(=O)C(C)C [Material 1111]	–	J (Melamine formaldehyde PMC leakage less than or equal to 5%)	–
CC(C=O)=CCC1C(C)=CCCC1(C)C (stereo not drawn) [Material 1116]	–	–	J (Melamine formaldehyde PMC leakage less than or equal to 5%)
COC1C=CC2C3CCC(C3)C12 (stereo not drawn) [Material 1120]	–	–	J (Melamine formaldehyde PMC leakage less than or equal to 5%)
COC(=O)c1ccccc1N=CC(C)Cc1ccc(C(C)(C)C)cc1 (stereo not drawn) [Material 1121]	–	–	J (Melamine formaldehyde PMC leakage less than or equal to 5%)
CCC=CCCOC(=O)C(C)C [Material 1125]	–	–	J (Melamine formaldehyde PMC leakage less than or equal to 5%)
CC1CC(C)(c2ccccc2)OC(C)O1 (stereo not drawn) [Material 1126]	–	–	J (Melamine formaldehyde PMC leakage less than or equal to 5%)
CC(=O)C1=C(C)[C@@H]2C[C@@]3(C1)[C@H](C)CC[C@H]3C2(C)C [Material 1129]	J (Melamine formaldehyde PMC leakage less than or equal to 5%)	–	J (Melamine formaldehyde PMC leakage less than or equal to 5%)
COC(=O)c1ccccc1/N=C\C1CCC(C)=CC1C (stereo not drawn) [Material 1131]	J (Melamine formaldehyde PMC leakage less than or equal to 5%)	–	J (Melamine formaldehyde PMC leakage less than or equal to 5%)
CC(=O)OC(C)CC(C)(C)c1ccccc1 (stereo not drawn) [Material 1134]	J (Melamine formaldehyde PMC leakage less than or equal to 5%)	–	–
C1CC2C3CC(C2C1)C1(CCCO1)C3 (stereo not drawn) [Material 1137]	J (Melamine formaldehyde PMC leakage less than or equal to 5%)	–	J (Melamine formaldehyde PMC leakage less than or equal to 5%)
COC(=O)OC1CC/C=C\CCC1 (stereo not drawn) [Material 1139]	–	–	J (Melamine formaldehyde PMC leakage less than or equal to 5%)
C[C@@H]1CC[C@H]2[C@@H]1[C@H]1[C@@H](CC[C@]2(C)O)C1(C)C [Material 1140]	J (Melamine formaldehyde PMC leakage less than or equal to 5%)	–	J (Melamine formaldehyde PMC leakage less than or equal to 5%)
Cc1cc2c(cc1C#N)C(C)(C)C(C)C(C)C2(C)C (stereo not drawn) [Material 1142]	J (Melamine formaldehyde PMC leakage less than or equal to 5%)	–	J (Melamine formaldehyde PMC leakage less than or equal to 5%)
C[C@H]1[C@@H]2C[C@H](C[C@@]13C=CC(=O)CC3)C2(C)C [Material 1143]	J (Melamine formaldehyde PMC leakage less than or equal to 5%)	–	J (Melamine formaldehyde PMC leakage less than or equal to 5%)
